# The supplement of paper PMC12819154, “High-throughput peptide-centric local stability assay extends protein–ligand identification to membrane proteins, tissues and bacteria” (Nature Structural & Molecular Biology, 2025)
# The chains behind the UniProt entries cited, without tags or fusion partners. Where a name states a change or a piece, a line headed by the entry shows the natural chain unless it says otherwise.
# UniProt Q9H267: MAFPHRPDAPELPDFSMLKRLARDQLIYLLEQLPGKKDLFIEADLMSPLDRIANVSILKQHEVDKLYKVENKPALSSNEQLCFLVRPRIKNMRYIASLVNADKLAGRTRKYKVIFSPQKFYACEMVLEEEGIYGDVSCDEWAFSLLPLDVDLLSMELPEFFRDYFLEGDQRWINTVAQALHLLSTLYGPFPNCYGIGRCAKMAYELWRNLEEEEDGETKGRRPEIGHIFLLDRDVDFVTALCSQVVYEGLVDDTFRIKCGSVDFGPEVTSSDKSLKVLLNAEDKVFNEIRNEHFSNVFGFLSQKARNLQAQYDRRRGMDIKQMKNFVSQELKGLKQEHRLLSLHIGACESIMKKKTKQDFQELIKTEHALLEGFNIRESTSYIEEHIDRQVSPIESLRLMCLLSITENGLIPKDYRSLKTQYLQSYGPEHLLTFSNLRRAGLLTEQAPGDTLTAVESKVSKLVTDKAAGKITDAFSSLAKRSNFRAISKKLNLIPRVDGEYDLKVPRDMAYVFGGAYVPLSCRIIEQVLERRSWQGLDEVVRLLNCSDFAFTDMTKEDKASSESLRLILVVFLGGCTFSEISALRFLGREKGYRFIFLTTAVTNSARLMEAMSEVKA
# UniProt Q9H299: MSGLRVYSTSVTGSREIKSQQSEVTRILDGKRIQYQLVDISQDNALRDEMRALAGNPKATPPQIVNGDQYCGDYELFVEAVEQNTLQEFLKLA
# UniProt Q9H832: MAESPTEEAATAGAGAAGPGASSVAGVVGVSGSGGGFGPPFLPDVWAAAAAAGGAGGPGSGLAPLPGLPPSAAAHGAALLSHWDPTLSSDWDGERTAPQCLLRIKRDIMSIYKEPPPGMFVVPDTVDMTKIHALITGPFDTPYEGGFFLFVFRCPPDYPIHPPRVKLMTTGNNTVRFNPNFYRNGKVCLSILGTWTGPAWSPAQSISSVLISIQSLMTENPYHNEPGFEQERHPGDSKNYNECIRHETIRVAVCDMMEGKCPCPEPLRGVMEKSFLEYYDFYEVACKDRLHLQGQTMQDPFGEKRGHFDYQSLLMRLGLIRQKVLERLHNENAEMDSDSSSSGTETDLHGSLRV
# UniProt Q9HB71, whole entry: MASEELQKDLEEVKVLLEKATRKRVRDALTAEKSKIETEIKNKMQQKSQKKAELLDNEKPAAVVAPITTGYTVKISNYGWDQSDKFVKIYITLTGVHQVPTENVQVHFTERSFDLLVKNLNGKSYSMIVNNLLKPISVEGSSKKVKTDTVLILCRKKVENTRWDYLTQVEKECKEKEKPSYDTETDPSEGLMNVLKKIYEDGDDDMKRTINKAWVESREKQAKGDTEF
# UniProt Q9HCE0: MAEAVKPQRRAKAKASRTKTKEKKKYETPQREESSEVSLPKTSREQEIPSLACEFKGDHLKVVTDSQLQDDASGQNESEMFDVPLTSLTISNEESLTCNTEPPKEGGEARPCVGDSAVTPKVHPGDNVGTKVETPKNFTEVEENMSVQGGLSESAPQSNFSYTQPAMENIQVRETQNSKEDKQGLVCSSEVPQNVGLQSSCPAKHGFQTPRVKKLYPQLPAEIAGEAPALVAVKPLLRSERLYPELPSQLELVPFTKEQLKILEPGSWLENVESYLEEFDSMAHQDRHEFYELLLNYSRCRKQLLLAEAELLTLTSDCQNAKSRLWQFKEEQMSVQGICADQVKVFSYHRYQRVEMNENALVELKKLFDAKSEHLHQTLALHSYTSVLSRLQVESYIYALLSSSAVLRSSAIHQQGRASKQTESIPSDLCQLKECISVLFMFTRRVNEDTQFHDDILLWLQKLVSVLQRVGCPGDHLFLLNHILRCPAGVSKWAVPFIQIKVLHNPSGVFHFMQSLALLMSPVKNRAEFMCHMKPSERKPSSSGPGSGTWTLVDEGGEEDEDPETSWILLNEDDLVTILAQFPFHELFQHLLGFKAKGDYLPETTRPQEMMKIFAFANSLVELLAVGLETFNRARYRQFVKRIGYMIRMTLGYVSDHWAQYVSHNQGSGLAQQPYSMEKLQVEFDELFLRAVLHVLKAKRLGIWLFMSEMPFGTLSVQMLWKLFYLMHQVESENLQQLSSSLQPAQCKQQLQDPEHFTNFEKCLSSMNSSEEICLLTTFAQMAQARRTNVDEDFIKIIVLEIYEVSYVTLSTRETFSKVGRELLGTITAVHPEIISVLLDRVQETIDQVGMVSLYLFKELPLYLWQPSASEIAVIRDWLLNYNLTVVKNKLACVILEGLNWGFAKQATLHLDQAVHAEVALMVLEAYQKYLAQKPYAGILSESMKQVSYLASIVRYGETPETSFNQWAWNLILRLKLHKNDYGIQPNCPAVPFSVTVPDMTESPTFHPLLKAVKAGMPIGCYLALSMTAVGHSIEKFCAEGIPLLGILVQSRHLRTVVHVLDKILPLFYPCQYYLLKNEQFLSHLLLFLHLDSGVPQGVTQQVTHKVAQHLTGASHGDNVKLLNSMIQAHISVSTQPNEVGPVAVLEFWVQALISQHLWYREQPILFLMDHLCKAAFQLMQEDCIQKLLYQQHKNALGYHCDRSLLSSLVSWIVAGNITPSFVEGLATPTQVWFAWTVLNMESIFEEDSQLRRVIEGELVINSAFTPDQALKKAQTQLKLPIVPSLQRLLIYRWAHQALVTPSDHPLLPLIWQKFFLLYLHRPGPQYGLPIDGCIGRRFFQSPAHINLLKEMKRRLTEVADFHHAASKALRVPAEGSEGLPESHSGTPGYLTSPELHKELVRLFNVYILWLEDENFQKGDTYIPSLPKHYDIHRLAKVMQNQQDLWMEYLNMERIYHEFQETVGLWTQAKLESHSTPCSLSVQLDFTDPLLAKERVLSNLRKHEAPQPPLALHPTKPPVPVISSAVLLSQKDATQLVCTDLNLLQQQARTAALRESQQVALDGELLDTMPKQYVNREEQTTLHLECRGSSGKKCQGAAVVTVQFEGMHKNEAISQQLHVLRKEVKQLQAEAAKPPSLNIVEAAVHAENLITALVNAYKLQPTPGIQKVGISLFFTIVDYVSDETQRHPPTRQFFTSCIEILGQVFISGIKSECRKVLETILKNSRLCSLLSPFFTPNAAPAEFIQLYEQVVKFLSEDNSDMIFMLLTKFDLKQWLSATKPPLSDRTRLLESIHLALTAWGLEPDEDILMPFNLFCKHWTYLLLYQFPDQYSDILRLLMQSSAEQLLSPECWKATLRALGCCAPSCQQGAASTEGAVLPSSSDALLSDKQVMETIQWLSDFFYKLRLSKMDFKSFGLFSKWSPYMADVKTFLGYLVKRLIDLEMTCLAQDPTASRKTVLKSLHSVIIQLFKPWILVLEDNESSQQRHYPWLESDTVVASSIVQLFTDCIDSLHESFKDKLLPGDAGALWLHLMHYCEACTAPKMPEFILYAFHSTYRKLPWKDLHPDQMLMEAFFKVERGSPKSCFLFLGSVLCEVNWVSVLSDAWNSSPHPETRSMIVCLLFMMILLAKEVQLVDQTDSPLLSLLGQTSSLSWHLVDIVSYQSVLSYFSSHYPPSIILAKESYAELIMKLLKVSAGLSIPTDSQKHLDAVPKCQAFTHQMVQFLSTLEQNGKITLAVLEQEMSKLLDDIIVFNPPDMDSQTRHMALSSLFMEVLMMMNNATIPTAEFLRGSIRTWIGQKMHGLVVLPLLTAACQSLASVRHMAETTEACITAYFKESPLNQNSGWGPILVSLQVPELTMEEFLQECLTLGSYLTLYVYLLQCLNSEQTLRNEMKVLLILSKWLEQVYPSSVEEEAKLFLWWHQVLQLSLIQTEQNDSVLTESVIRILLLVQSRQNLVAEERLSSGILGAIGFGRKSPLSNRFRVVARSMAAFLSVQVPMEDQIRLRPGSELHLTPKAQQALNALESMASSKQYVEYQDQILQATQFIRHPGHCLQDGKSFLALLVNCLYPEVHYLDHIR
# UniProt Q9H469: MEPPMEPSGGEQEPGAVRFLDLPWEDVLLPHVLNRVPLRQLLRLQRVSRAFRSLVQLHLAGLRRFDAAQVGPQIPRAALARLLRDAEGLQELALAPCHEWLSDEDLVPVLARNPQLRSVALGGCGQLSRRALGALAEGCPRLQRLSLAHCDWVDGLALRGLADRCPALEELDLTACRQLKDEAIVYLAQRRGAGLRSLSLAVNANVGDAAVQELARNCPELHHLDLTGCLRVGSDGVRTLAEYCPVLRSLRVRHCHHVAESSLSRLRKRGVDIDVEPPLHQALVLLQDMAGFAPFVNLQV
# UniProt Q9H6Y5: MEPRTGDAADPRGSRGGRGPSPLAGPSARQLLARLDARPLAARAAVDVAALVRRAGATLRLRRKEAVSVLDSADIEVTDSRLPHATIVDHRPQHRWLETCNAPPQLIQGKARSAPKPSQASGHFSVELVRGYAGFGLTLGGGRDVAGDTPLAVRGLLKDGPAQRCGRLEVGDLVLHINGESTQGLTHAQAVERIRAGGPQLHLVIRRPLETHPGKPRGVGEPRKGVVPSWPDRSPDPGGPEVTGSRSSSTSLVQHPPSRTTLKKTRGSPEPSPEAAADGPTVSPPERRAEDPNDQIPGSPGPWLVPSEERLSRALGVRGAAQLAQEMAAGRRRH
# UniProt Q9H7J1: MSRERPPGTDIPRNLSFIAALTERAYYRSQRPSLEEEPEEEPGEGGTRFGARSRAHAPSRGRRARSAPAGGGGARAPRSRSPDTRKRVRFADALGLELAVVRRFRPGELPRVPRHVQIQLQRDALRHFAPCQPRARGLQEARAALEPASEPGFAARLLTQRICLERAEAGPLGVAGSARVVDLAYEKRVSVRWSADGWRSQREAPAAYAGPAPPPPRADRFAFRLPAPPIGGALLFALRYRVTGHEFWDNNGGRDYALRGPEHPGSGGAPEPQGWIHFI
# UniProt Q9H4H8: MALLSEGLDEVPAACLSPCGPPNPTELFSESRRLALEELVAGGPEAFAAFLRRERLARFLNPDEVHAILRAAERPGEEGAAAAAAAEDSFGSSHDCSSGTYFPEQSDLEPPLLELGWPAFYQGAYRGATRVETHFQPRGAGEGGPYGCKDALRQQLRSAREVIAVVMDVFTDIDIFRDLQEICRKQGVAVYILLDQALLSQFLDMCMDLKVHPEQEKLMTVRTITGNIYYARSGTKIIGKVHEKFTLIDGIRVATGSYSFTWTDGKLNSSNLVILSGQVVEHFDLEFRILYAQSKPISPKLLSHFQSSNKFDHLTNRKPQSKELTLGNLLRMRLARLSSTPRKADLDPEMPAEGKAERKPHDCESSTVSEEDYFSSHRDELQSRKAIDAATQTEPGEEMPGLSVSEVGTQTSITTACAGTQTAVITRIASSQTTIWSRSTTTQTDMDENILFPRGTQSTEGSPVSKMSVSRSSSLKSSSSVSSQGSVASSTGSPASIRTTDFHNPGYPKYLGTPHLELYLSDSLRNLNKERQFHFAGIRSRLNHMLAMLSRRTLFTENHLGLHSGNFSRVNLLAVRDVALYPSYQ
# UniProt Q9H9F9, whole entry: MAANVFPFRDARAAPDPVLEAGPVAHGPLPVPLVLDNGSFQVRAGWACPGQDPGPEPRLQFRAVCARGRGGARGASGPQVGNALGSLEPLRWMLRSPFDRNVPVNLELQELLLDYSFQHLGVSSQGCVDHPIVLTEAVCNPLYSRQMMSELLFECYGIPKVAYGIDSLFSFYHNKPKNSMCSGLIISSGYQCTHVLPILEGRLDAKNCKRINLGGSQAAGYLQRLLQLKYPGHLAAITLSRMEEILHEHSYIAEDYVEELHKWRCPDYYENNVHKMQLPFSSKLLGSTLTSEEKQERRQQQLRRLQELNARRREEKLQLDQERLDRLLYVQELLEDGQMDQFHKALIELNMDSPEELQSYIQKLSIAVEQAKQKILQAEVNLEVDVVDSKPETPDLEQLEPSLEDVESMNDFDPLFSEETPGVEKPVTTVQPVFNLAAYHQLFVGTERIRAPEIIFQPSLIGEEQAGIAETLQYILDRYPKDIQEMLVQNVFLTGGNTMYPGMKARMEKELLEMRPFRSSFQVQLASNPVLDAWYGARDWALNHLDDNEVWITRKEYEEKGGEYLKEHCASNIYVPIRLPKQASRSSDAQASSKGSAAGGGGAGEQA
# UniProt Q9H4I8: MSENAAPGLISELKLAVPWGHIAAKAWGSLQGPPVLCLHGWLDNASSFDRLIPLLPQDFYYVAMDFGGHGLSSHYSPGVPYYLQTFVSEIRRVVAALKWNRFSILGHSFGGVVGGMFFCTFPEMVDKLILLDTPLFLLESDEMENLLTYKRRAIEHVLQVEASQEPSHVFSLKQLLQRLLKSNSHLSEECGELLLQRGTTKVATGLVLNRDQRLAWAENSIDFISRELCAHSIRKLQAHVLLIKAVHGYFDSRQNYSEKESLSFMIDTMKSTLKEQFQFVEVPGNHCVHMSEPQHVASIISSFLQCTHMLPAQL
# UniProt Q9H204: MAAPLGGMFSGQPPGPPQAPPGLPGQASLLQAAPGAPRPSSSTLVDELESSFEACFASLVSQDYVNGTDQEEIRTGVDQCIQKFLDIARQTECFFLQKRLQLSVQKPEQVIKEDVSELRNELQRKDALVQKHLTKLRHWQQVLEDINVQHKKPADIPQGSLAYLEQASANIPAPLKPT
# The list shows a part of the results. Small differences around the control level are noise.
# Compound: Cc1nc(Nc2ncc(C(=O)Nc3c(C)cccc3Cl)s2)cc(N2CCN(CCO)CC2)n1 [dasatinib]
# Assay: log2 fold change of tryptic peptide abundance, ligand vs vehicle (limited proteolysis) (log2 ratio); higher = more trypsin-susceptible (destabilized)
# Conditions: ligand concentration: 5 uM; sample: K562 cleared lysate
row,Target,log2 fold change
1,"CWC22 (peptide sequence: NSFSENEK, peptide start residue: 828) (UniProt Q9HCG8)",0.136
2,"VPS33B (peptide sequence: TEHALLEGFNIR, peptide start residue: 366) (UniProt Q9H267)",-0.203
3,"SH3BGRL3 (peptide sequence: SQQSEVTR, peptide start residue: 19) (UniProt Q9H299)",0.0812
4,"UBE2Z (peptide sequence: LHLQGQTMQDPFGEKR, peptide start residue: 290) (UniProt Q9H832)",0.558
5,"CACYBP (peptide sequence: WDYLTQVEKECK, peptide start residue: 163) (UniProt Q9HB71)",-0.13
6,"UniProt Q9HCE0 (peptide sequence: QQLQDPEHFTNFEK, peptide start residue: 749)",-0.499
7,"UniProt Q9HCH0 (peptide sequence: AGSESPHPGR, peptide start residue: 626)",-0.45
8,"FBXL15 (peptide sequence: SLVQLHLAGLRR, peptide start residue: 53) (UniProt Q9H469)",0.318
9,"TDRD3 (peptide sequence: IFYNSGPK, peptide start residue: 525) (UniProt Q9H7E2)",-0.52
10,"ESF1 (peptide sequence: IVEHQNLSKK, peptide start residue: 728) (UniProt Q9H501)",0.815
11,"OSGEPL1 (peptide sequence: HPECSTMSGGK, peptide start residue: 213) (UniProt Q9H4B0)",-0.271
12,"UniProt Q9HAU4 (peptide sequence: THLHTPPDLPEGYEQR, peptide start residue: 245)",-0.308
13,"UniProt Q9H6Y5 (peptide sequence: LPHATIVDHR, peptide start residue: 82)",-0.162
14,"PPP1R3E (peptide sequence: FADALGLELAVVRR, peptide start residue: 90) (UniProt Q9H7J1)",-0.52
15,"UniProt Q9HCE5 (peptide sequence: ETCRASYDTSAPNAKR, peptide start residue: 49)",0.345
16,"UniProt Q9H3N1 (peptide sequence: LLSESAQPLK, peptide start residue: 224)",0.14
17,"FAM83D (peptide sequence: VETHFQPR, peptide start residue: 131) (UniProt Q9H4H8)",0.78
18,"UniProt Q9H611 (peptide sequence: RPVEPQAGAEPSTEAPR, peptide start residue: 174)",0.102
19,"UniProt Q9H320 (peptide sequence: KSSSQPSPSDPK, peptide start residue: 21)",0.079
20,"PLEKHA2 (peptide sequence: YFLQANDQK, peptide start residue: 91) (UniProt Q9HB19)",0.289
21,"ZNF106 (peptide sequence: QKESELQMTSAASPHPGLLLDLK, peptide start residue: 649) (UniProt Q9H2Y7)",0.544
22,"ACTR5 (peptide sequence: LSIAVEQAK, peptide start residue: 364) (UniProt Q9H9F9)",0.214
23,"UniProt Q9H4I8 (peptide sequence: SNSHLSEECGELLLQR, peptide start residue: 182)",-0.283
24,"MED28 (peptide sequence: QTECFFLQK, peptide start residue: 90) (UniProt Q9H204)",0.157
25,"UniProt Q9H6D7 (peptide sequence: LKTQSELDR, peptide start residue: 254)",0.552
26,"DSN1 (peptide sequence: SISVDLAESKR, peptide start residue: 123) (UniProt Q9H410)",-0.116

# An excerpt of these results, with bars between the fields:
row | Target | log2 fold change
21 | ZNF106 (peptide sequence: QKESELQMTSAASPHPGLLLDLK, peptide start residue: 649) (UniProt Q9H2Y7) | 0.544
22 | ACTR5 (peptide sequence: LSIAVEQAK, peptide start residue: 364) (UniProt Q9H9F9) | 0.214
